In the experiment the target is T1, recombinant human full-length cystatin F with his-tag (human) (UniProt O76096).
T1 sequence: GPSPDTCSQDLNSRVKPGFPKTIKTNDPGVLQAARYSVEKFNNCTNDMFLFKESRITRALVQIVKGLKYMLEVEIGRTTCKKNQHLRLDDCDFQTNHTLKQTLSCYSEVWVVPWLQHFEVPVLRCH
The experiment is described as follows: co-IP; TALL-104 cells (50 x 10^6) incubated 4 h with 100 nM his-tagged recombinant full-length cystatin F, washed, lysed (50 mM Tris-HCl pH 7.4, 100 mM NaCl, 0.25% Triton X, protease inhibitors); anti-his-tag antibody overnight at 4 °C, Dynabeads protein A; western blot with anti-cathepsin C; untreated cells as control; only the target purified. Background: A western blot detects proteins with antibodies after separation by electrophoresis.

Protein sequences, listed by entry. Tags and fused reporters are not part of them. Lines headed by an entry give the natural chain unless they say otherwise; changes in a name come on top.
UniProt P53634: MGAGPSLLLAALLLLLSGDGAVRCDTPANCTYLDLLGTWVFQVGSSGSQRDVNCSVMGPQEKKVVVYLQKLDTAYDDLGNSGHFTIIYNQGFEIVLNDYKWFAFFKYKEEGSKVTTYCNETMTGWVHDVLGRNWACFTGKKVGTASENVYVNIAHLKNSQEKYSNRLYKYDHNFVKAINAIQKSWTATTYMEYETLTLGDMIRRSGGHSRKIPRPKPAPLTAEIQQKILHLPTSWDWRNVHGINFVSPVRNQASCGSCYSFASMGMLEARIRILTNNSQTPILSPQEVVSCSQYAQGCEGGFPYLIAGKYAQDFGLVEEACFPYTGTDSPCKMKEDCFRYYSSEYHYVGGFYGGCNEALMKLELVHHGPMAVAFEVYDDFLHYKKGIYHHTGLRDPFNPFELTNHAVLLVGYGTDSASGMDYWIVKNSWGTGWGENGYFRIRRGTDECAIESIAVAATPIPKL

Results are given in words; binding and its absence hold for the method and conditions named. In cells and extracts the contact can be indirect. A result given as binding can be weak or reduced; the word gives no strength. Where a sequence is shown, tags or fusion partners need not be part of it.

Data on one substance can be found in PMC7762138.

In the case of “cathepsin C (from UniProt P53634) (enzyme)”, the binding entry is given as “binds”.
